Measured values as given in the supplement of paper PMC10849652.
This is one part of the list.

Amino acid sequences for entries named in this document (tags omitted). A change or cut given only in a name is not applied to a line headed by its entry.
UniProt O95865: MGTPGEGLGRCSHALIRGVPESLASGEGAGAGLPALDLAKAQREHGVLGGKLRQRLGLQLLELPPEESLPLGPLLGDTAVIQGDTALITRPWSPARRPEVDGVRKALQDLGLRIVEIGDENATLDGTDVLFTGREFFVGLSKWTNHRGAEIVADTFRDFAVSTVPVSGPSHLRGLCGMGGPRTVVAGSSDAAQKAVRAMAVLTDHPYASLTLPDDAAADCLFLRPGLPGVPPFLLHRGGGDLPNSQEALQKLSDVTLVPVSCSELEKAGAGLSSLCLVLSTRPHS
UniProt P30046: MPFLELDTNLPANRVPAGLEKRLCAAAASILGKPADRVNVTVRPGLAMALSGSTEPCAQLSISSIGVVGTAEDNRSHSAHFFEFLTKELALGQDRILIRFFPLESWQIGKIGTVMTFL
UniProt Q7Z401: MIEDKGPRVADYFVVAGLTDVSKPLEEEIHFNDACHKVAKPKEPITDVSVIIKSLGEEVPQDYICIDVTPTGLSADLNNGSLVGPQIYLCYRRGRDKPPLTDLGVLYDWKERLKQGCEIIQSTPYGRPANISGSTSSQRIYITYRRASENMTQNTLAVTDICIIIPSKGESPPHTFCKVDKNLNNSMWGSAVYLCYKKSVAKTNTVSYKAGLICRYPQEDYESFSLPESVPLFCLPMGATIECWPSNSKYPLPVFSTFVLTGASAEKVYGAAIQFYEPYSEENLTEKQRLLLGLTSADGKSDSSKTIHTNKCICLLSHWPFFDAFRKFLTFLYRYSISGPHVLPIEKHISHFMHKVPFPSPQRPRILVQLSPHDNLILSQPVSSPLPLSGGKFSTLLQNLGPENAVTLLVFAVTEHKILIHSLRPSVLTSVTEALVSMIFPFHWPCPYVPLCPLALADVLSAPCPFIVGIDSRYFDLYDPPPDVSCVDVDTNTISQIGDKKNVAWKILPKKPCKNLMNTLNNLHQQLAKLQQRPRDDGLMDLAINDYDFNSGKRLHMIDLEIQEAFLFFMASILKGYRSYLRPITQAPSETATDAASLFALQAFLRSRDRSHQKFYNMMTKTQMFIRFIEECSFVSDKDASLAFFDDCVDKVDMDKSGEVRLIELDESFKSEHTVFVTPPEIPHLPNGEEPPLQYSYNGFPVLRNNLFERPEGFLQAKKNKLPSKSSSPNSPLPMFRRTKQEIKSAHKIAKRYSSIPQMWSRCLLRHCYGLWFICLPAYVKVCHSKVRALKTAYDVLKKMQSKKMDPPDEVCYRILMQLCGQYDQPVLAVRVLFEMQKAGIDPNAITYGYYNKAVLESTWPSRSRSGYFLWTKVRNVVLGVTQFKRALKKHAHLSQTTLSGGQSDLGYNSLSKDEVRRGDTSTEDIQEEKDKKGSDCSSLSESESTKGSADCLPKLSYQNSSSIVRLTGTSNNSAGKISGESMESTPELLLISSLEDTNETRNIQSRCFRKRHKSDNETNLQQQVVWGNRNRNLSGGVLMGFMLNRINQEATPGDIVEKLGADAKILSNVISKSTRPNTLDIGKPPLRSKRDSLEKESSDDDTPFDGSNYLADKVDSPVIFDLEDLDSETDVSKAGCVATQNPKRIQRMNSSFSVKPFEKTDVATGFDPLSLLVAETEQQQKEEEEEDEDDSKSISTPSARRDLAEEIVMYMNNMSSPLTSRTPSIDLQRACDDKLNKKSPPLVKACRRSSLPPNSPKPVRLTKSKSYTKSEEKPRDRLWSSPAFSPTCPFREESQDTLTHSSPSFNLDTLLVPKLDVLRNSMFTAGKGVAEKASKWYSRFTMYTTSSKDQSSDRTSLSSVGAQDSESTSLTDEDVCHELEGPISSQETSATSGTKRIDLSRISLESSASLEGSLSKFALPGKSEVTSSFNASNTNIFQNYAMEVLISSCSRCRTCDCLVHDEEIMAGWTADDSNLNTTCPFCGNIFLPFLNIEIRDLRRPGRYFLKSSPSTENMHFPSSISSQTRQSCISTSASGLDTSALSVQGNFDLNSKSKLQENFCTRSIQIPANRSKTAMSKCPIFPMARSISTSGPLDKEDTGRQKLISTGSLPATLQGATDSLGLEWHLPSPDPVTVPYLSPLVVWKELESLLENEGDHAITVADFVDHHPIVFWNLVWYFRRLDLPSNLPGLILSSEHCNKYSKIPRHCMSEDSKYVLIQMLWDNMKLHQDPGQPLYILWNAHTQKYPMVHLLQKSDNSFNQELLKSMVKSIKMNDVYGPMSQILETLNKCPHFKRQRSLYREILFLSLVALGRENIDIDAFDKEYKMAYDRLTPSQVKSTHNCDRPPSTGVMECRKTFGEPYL
UniProt P0CG22: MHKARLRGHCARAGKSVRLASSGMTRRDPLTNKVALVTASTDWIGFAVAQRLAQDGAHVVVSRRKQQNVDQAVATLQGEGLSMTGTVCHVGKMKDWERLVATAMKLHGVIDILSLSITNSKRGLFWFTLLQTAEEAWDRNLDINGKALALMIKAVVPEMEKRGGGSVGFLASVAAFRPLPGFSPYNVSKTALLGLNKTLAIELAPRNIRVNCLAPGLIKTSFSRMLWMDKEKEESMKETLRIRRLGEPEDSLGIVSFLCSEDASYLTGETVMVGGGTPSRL
UniProt Q92796: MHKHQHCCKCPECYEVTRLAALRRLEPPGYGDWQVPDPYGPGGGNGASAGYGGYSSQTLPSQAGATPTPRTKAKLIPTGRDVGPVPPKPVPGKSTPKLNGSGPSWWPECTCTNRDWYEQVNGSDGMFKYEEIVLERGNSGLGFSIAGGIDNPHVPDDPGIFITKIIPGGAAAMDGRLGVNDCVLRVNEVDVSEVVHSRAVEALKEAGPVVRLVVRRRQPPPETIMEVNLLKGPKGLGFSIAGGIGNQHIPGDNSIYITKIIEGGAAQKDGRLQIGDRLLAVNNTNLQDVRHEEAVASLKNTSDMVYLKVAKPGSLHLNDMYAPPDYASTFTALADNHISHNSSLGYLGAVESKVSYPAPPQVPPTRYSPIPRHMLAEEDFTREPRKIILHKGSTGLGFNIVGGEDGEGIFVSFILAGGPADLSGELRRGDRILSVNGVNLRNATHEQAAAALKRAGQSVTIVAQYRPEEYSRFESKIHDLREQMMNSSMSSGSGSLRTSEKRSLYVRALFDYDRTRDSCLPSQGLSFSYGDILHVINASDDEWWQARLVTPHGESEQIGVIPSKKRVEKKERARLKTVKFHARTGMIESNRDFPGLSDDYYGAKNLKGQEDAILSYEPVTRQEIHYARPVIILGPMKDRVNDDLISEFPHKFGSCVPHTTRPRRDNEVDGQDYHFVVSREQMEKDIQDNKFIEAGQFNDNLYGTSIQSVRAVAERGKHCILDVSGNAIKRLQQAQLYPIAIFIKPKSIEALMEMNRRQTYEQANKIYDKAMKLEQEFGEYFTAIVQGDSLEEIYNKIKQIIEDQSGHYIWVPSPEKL
UniProt Q9UHI6: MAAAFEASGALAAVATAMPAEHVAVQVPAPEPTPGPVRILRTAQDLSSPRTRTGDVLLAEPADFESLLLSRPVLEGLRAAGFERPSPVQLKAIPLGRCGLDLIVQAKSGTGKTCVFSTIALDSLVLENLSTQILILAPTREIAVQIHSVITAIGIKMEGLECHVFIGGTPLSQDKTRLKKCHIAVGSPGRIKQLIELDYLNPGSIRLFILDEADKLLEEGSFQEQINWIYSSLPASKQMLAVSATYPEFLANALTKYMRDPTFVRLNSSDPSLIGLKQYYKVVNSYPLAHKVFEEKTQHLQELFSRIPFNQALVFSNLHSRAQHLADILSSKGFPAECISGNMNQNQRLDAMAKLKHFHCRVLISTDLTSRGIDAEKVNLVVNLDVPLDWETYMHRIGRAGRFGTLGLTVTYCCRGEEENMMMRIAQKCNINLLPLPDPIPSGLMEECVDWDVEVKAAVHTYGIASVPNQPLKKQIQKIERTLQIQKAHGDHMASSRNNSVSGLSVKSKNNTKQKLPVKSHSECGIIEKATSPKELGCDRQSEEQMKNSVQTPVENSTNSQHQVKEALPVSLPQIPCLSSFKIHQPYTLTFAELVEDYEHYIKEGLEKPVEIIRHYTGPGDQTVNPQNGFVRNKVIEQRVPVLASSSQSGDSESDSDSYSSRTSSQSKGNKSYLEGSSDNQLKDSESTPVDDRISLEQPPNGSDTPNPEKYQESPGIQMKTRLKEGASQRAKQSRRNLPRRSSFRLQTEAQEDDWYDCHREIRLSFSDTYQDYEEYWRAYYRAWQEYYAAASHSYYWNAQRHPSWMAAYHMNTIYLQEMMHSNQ
UniProt Q9Y2L1: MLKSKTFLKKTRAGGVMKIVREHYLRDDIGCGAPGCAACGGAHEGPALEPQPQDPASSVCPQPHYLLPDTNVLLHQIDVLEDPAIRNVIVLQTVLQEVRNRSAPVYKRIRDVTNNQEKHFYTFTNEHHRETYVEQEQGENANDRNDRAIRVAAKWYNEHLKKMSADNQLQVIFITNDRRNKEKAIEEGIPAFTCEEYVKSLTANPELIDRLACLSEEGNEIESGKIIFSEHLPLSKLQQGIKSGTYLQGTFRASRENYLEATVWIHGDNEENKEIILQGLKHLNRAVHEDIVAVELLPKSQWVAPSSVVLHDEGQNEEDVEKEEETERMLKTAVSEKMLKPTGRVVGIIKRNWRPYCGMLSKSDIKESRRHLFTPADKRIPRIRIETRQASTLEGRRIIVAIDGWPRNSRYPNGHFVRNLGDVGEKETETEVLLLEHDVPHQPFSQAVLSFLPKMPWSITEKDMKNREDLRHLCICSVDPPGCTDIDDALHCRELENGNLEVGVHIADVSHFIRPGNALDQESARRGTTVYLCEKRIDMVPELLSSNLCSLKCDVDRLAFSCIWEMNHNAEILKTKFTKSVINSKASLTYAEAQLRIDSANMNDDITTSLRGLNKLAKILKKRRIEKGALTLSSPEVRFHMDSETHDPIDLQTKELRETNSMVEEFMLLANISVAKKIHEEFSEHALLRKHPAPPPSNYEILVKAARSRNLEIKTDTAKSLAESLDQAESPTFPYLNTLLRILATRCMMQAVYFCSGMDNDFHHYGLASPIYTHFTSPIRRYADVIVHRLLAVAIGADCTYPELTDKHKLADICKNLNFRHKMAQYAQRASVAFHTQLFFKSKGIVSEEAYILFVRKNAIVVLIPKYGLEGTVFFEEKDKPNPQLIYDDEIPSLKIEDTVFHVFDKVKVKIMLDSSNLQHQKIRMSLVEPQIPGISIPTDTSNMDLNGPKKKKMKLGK
UniProt Q5TDH0: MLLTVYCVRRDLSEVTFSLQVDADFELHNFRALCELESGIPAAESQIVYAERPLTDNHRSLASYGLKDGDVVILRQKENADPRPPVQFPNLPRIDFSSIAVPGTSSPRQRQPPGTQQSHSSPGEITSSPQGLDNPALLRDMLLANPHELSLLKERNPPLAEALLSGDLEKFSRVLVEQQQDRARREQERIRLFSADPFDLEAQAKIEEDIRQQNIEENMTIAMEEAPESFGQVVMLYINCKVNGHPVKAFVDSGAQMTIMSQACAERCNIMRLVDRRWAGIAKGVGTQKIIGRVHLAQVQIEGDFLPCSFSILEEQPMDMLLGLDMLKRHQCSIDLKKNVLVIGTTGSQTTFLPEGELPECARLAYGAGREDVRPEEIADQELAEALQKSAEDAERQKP
UniProt Q9NY93: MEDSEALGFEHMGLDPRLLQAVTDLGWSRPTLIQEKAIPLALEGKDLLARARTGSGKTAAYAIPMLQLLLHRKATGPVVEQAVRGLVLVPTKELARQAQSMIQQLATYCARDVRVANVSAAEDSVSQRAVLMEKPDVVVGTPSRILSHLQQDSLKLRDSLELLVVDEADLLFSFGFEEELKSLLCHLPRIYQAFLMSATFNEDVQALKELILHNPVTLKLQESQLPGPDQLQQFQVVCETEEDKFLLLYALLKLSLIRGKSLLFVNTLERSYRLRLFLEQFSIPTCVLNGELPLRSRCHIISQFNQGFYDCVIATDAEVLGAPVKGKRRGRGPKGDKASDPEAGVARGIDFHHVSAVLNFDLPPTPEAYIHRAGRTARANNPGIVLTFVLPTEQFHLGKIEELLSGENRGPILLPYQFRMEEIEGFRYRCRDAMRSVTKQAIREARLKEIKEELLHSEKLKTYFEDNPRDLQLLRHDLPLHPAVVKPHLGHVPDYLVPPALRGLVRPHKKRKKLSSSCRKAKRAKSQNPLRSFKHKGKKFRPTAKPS
UniProt Q96HY6: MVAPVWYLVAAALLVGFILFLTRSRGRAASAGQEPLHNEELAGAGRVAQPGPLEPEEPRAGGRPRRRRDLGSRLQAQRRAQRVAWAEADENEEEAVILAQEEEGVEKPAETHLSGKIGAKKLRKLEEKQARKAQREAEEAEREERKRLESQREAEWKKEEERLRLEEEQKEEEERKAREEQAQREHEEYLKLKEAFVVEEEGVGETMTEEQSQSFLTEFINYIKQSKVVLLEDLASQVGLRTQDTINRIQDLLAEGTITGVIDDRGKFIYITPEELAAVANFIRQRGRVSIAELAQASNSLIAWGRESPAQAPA

Tests used:
Experiment in all cases: log2 fold change, soluble protein after heating vs DMSO (PISA); higher = thermal stabilisation; K562 cells, 10 uM, 30 min; active = over 0.2 and 3.5 SD of the protein, either way, in both replicates (recomputed)
[1] = compound: CS(=O)(=O)c1ccc(-c2cnc(N)c(C(=O)Nc3ccccc3)n2)cc1
Method in brief: (§1)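 Soluble protein was defined as the supernatant after 21,000xg for 90 min. It came from K562 cells at 2×10^6 cells/mL given 10 μM compound for 30 min, heated in aliquots for 3 min across 48°C-58°C, pooled, and extracted in PBS with 0.5% NP-40 at 4°C, and was quantified by TMTpro 16plex LC-MS/MS with equalised channel sums. Thermal stability against control samples, from duplicates, is reported as log2 fold change.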

crizotinib = compound: C[C@@H](Oc1cc(-c2cnn(C3CCNCC3)c2)cnc1N)c1c(Cl)ccc(F)c1Cl [crizotinib]
Method in brief: as §1

[2] = compound: C[C@@H]1COCCN1C2=NC(=NC(=C2)C3(CC3)S(=O)(=O)C)C4=C5C=CNC5=CC=C4
Method in brief: as §1

[3] = compound: C[C@H](C1=CC=C(C=C1)C(=O)NC2=C3C=CNC3=NC=C2)N
Method in brief: as §1

duvelisib = compound: C[C@H](Nc1ncnc2nc[nH]c12)c1cc2cccc(Cl)c2c(=O)n1-c1ccccc1 [duvelisib]
Method in brief: as §1

gandotinib = compound: Cc1cc(Nc2cc(CN3CCOCC3)c3nc(C)c(Cc4ccc(Cl)cc4F)n3n2)n[nH]1 [gandotinib]
Method in brief: as §1

tozasertib = compound: Cc1cc(Nc2cc(N3CCN(C)CC3)nc(Sc3ccc(NC(=O)C4CC4)cc3)n2)n[nH]1 [tozasertib]
Method in brief: as §1

[4] = compound: Cc1cc(SCc2sc(-c3ccc(C(F)(F)F)cc3)nc2C)ccc1OCC(=O)O
Method in brief: as §1

doramapimod = compound: Cc1ccc(-n2nc(C(C)(C)C)cc2NC(=O)Nc2ccc(OCCN3CCOCC3)c3ccccc23)cc1 [doramapimod]
Method in brief: as §1

ispinesib = compound: Cc1ccc(C(=O)N(CCCN)[C@@H](c2nc3cc(Cl)ccc3c(=O)n2Cc2ccccc2)C(C)C)cc1 [ispinesib]
Method in brief: as §1

bafetinib = compound: Cc1ccc(NC(=O)c2ccc(CN3CC[C@H](N(C)C)C3)c(C(F)(F)F)c2)cc1Nc1nccc(-c2cncnc2)n1 [bafetinib]
Method in brief: as §1

[5] = compound: Cc1cccc(CC(=O)N2CCc3c2ccc(-c2cn(C)c4ncnc(N)c24)c3F)n1
Method in brief: as §1

nilotinib = compound: Cc1cn(-c2cc(NC(=O)c3ccc(C)c(Nc4nccc(-c5cccnc5)n4)c3)cc(C(F)(F)F)c2)cn1 [nilotinib]
Method in brief: as §1

[6] = compound: Cc1nc(Nc2n[nH]c3c2CN(C(=O)N[C@H](CN(C)C)c2ccccc2)C3(C)C)c2sccc2n1
Method in brief: as §1

dasatinib = compound: Cc1nc(Nc2ncc(C(=O)Nc3c(C)cccc3Cl)s2)cc(N2CCN(CCO)CC2)n1 [dasatinib]
Method in brief: as §1

[7] = compound: Cc1ncc(-c2ccnc(Nc3ccc(S(C)(=O)=O)cc3)n2)n1C(C)C
Method in brief: as §1

[8] = compound: Cn1cc(-c2ccc3c(c2)CCN3C(=O)Cc2cccc(C(F)(F)F)c2)c2c(N)ncnc21
Method in brief: as §1

[9] = compound: Cn1cc(-c2ccc3nnc(C(F)(F)c4ccc5ncccc5c4)n3n2)cn1
Method in brief: as §1

tipifarnib = compound: Cn1cncc1[C@@](N)(c1ccc(Cl)cc1)c1ccc2c(c1)c(-c1cccc(Cl)c1)cc(=O)n2C [tipifarnib]
Method in brief: as §1

mubritinib = compound: FC(F)(F)c1ccc(/C=C/c2nc(COc3ccc(CCCCn4ccnn4)cc3)co2)cc1 [mubritinib]
Method in brief: as §1

Measured: log2 fold change

DDAH2 (UniProt O95865)
inactive: [1] 0.015 | crizotinib 0.077 | [2] 0.141 | [3] -0.086 | duvelisib 0.07 | gandotinib 0.039 | tozasertib 0.03 | [4] -0.001 | doramapimod 0.013 | ispinesib 0.066 | bafetinib -0.017 | [5] -0.039 | nilotinib 0.03 | [6] -0.019 | dasatinib 0.11 | [7] 0.002 | [8] 0.109 | [9] 0.074 | tipifarnib -0.034 | mubritinib 0.032

DHX15 (UniProt O43143)
inactive: [1] 0.014 | crizotinib 0.024 | [2] -0.004 | [3] -0.072 | duvelisib 0.019 | gandotinib 0.001 | tozasertib -0.027 | [4] -0.037 | doramapimod -0.001 | ispinesib 0.034 | bafetinib -0.026 | [5] 0.009 | nilotinib -0.036 | [6] 0.011 | dasatinib 0.013 | [7] 0.01 | [8] 0.021 | [9] 0.006 | tipifarnib -0.001 | mubritinib 0.008

DDT (UniProt P30046)
inactive: [1] 0.007 | crizotinib 0.094 | [2] 0.155 | [3] -0.069 | duvelisib 0.046 | gandotinib 0.018 | tozasertib 0.019 | [4] -0.059 | doramapimod -0.004 | ispinesib 0.036 | bafetinib 0 | [5] -0.04 | nilotinib 0.01 | [6] 0.01 | dasatinib 0.089 | [7] -0.013 | [8] 0.135 | [9] 0.086 | tipifarnib -0.103 | mubritinib 0.039

DENND4A isoform 2 (UniProt Q7Z401)
inactive: [1] -0.096 | crizotinib 0.029 | [2] -0.082 | [3] 0.043 | duvelisib 0.12 | gandotinib -0.094 | tozasertib 0.023 | [4] 0.08 | doramapimod -0.116 | ispinesib -0.136 | bafetinib -0.05 | [5] 0.024 | nilotinib -0.075 | [6] -0.223 | dasatinib -0.256 | [7] -0.051 | [8] -0.107 | [9] -0.071 | tipifarnib -0.07 | mubritinib -0.236

2 entries drawn at random from the list so far:
DHX15 (UniProt O43143)
inactive: [1] 0.014 | crizotinib 0.024 | [2] -0.004 | [3] -0.072 | duvelisib 0.019 | gandotinib 0.001 | tozasertib -0.027 | [4] -0.037 | doramapimod -0.001 | ispinesib 0.034 | bafetinib -0.026 | [5] 0.009 | nilotinib -0.036 | [6] 0.011 | dasatinib 0.013 | [7] 0.01 | [8] 0.021 | [9] 0.006 | tipifarnib -0.001 | mubritinib 0.008

DENND4A isoform 2 (UniProt Q7Z401)
inactive: [1] -0.096 | crizotinib 0.029 | [2] -0.082 | [3] 0.043 | duvelisib 0.12 | gandotinib -0.094 | tozasertib 0.023 | [4] 0.08 | doramapimod -0.116 | ispinesib -0.136 | bafetinib -0.05 | [5] 0.024 | nilotinib -0.075 | [6] -0.223 | dasatinib -0.256 | [7] -0.051 | [8] -0.107 | [9] -0.071 | tipifarnib -0.07 | mubritinib -0.236

Next part.

DHRS4L1 (UniProt P0CG22)
inactive: [1] 0.046 | crizotinib 0.146 | [2] 0.093 | [3] -0.008 | duvelisib 0.068 | gandotinib -0.034 | tozasertib -0.003 | [4] -0.02 | doramapimod -0.043 | ispinesib 0.007 | bafetinib -0.081 | [5] -0.034 | nilotinib -0.051 | [6] 0.061 | dasatinib 0.009 | [7] -0.015 | [8] 0.056 | [9] 0.032 | tipifarnib 0.004 | mubritinib -0.034

DLG3 (UniProt Q92796)
inactive: [1] 0.008 | crizotinib 0.013 | [2] 0.121 | [3] 0.12 | duvelisib -0.002 | gandotinib 0.033 | tozasertib -0.062 | [4] 0.012 | doramapimod -0.034 | ispinesib 0.082 | bafetinib -0.018 | [5] 0.087 | nilotinib 0.005 | [6] 0.019 | dasatinib -0.019 | [7] -0.041 | [8] 0.136 | [9] -0.089 | tipifarnib 0.089 | mubritinib 0.06

DDX20 (UniProt Q9UHI6)
inactive: [1] 0.02 | crizotinib -0.167 | [2] -0.259 | [3] 0.517 | duvelisib 0.009 | gandotinib 0.063 | tozasertib 0 | [4] 0.007 | doramapimod 0.106 | ispinesib -0.174 | bafetinib 0.193 | [5] 0.063 | nilotinib -0.132 | [6] -0.26 | dasatinib -0.056 | [7] 0.056 | [8] -0.401 | [9] -0.05 | tipifarnib -0.038 | mubritinib -0.107

DDX3X (UniProt O00571)
inactive: [1] 0.17 | crizotinib -0.167 | [2] -0.709 | [3] 0.568 | duvelisib -0.212 | gandotinib 0.281 | tozasertib -0.171 | [4] 0.111 | doramapimod 0.41 | ispinesib -0.496 | bafetinib 0.259 | [5] -0.006 | nilotinib -0.152 | [6] -0.264 | dasatinib 0.024 | [7] -0.053 | [8] -0.306 | [9] -0.421 | tipifarnib 0.115 | mubritinib -0.297

DIS3 (UniProt Q9Y2L1)
inactive: [1] 0.021 | crizotinib -0.048 | [2] 0.121 | [3] -0.053 | duvelisib 0.059 | gandotinib -0.069 | tozasertib 0.057 | [4] 0.139 | doramapimod -0.049 | ispinesib -0.051 | bafetinib -0.032 | [5] 0.096 | nilotinib -0.105 | [6] -0.104 | dasatinib -0.215 | [7] -0.016 | [8] 0.077 | [9] 0.106 | tipifarnib -0.099 | mubritinib 0.062

DDI2 isoform 3 (UniProt Q5TDH0)
inactive: [1] 0.039 | crizotinib -0.006 | [2] -0.004 | [3] -0.047 | duvelisib -0.016 | gandotinib -0.037 | tozasertib 0.059 | [4] -0.005 | doramapimod -0.002 | ispinesib 0.028 | bafetinib -0.038 | [5] 0.079 | nilotinib 0.019 | [6] 0.017 | dasatinib -0.012 | [7] -0.029 | [8] 0.047 | [9] 0.008 | tipifarnib -0.016 | mubritinib 0.029

DMD (UniProt P11532)
inactive: [1] -0.024 | crizotinib 0.004 | [2] 0.012 | [3] 0.023 | duvelisib 0.014 | gandotinib -0.054 | tozasertib 0 | [4] 0.024 | doramapimod -0.001 | ispinesib -0.002 | bafetinib -0.048 | [5] 0.013 | nilotinib -0.025 | [6] -0.08 | dasatinib -0.033 | [7] -0.019 | [8] 0.026 | [9] -0.028 | tipifarnib -0.009 | mubritinib 0.075

DMAC2L (UniProt Q99766)
inactive: [1] 0.074 | crizotinib 0.154 | [2] 0.037 | [3] -0.035 | duvelisib 0.093 | gandotinib -0.065 | tozasertib -0.043 | [4] -0.046 | doramapimod -0.003 | ispinesib 0.151 | bafetinib -0.003 | [5] 0 | nilotinib -0.045 | [6] 0.002 | dasatinib -0.025 | [7] 0.044 | [8] 0.063 | [9] 0.088 | tipifarnib 0.031 | mubritinib 0.028

DDX56 (UniProt Q9NY93)
inactive: [1] 0.05 | crizotinib -0.255 | [2] -0.036 | [3] 0.365 | duvelisib -0.024 | gandotinib 0.03 | tozasertib 0.027 | [4] 0.135 | doramapimod 0.095 | ispinesib -0.04 | bafetinib 0.432 | [5] 0.13 | nilotinib 0.288 | [6] 0 | dasatinib -0.011 | [7] 0.039 | [8] -0.213 | [9] -0.147 | tipifarnib 0.096 | mubritinib 0.384

DDRGK1 (UniProt Q96HY6)
inactive: [1] 0.02 | crizotinib 0.034 | [2] -0.03 | [3] 0.023 | duvelisib -0.083 | gandotinib -0.084 | tozasertib 0.027 | [4] 0.027 | doramapimod 0.018 | ispinesib 0.044 | bafetinib 0.034 | [5] -0.089 | nilotinib -0.014 | [6] 0.008 | dasatinib 0.045 | [7] 0.018 | [8] -0.009 | [9] -0.01 | tipifarnib 0.098 | mubritinib 0.042

DNAJA1 (UniProt P31689)
inactive: [1] 0.01 | crizotinib 0.005 | [2] -0.022 | [3] -0.028 | duvelisib 0.012 | gandotinib -0.016 | tozasertib -0.007 | [4] -0.026 | doramapimod -0.022 | ispinesib 0.033 | bafetinib -0.072 | [5] 0.002 | nilotinib -0.082 | [6] -0.046 | dasatinib 0.017 | [7] -0.016 | [8] -0.001 | [9] -0.032 | tipifarnib 0.023 | mubritinib 0.03

DKC1 (UniProt O60832)
inactive: [1] -0.066 | crizotinib 0.007 | [2] -0.077 | [3] 0.158 | duvelisib -0.035 | gandotinib 0.102 | tozasertib -0.048 | [4] -0.012 | doramapimod 0.08 | ispinesib -0.008 | bafetinib 0.065 | [5] -0.048 | nilotinib -0.024 | [6] 0.108 | dasatinib 0.143 | [7] 0.032 | [8] -0.117 | [9] -0.117 | tipifarnib 0.072 | mubritinib -0.043
